The target in this assay is T1, Flag-Geminin WT (human) (UniProt O75496).
T1 sequence: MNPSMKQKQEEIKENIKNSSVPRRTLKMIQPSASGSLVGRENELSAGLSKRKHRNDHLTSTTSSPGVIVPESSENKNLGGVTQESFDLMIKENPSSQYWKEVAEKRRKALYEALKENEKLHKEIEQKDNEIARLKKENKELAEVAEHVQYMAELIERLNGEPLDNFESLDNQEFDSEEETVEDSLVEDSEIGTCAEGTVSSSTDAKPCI
In words: co-IP; 293T cells co-transfected with Flag-Geminin (WT or mutant) and SPOP (WT or mutant) (Fig. 1g, 3b, 3d, 3g).

Amino acid sequences for entries named in this document (tags omitted). A change or cut given only in a name is not applied to a line headed by its entry.
UniProt O43791: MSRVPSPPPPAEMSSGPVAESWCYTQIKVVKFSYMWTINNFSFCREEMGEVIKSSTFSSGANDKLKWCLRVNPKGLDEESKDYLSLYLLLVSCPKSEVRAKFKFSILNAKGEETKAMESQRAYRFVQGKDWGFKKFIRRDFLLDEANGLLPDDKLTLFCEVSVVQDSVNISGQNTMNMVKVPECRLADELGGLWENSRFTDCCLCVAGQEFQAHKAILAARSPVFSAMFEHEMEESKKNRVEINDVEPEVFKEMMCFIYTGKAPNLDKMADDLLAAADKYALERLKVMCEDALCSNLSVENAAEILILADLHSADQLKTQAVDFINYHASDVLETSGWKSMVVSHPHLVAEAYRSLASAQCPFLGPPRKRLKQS

Results are given in words; binding and its absence hold for the method and conditions named. Binding seen in cells or lysates may run through a third protein. Binding calls can cover weak binding; strength is not graded here. Sequences can lack the tags named with a protein.

Turning to SPOP ΔBTB mutant (from UniProt O43791), the binding entry was “binds”. Turning to SPOP ΔMATH mutant (from UniProt O43791), the binding result is on record as “no binding”.

The values are drawn from paper PMC8486843, “SPOP mutation induces replication over-firing by impairing Geminin ubiquitination and triggers replication catastrophe upon ATR inhibition” (Nature Communications, 2021).
